Results as given in PubChem BioAssay AID1347076 (National Center for Advancing Translational Sciences (NCATS), 2019).
The whole screen tested about 400,000 compounds, of which about 13,000 (3.2%) were called active. Inconclusive means that the source gave no clear call. Such entries were picked first, then a sample of the others. Calls follow the shape of the dose curve; as a rule, active = well fitted cell-killing curve with a large enough effect; inconclusive = small, poorly fitted or top-dose-only effect, or effect the other way; inactive = flat fitted curve, though single readings scatter. Where the call is inconclusive, the potency comes from a doubtful curve fit.

Experiment: qHTS assay for MDR1-selective chemotherapeutics: Primary screen using the drug-selected MDR subline cells KB-V1; also: nearly all actives have a fitted effect of over 60% in size
Conditions: KB-V1 MDR cells viability, CellTiter-Glo, 72 h; activity change, negative = cytotoxicity: at 46.1 µM (top of the series)
In short: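 Potencies derive from concentration-effect curves fitted to normalized luminescence (CellTiter-Glo) of KB-V1 cells treated for 72 h at 37 degrees C in phenol-red-free DMEM containing 10% FBS.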
% is scaled to controls: 0 for no effect and ±100 for the full control effect; potency is read from the fitted curve at half-maximal effect.

For `CC(C)Oc1ccc(C2CC(=O)NC3=C2C(=O)CCC3)cc1` (stereo not given), which Potency is on record?
Its Potency is inconclusive: 20.6 µM [cytotoxic, partial curve].

Which Potency does the source give for `CCOc1ccccc1C1N(c2ccc(F)cc2)C(=O)C2CCCN21` (stereo not given) here?
Its Potency is inconclusive: 14.6 µM [rising, partial curve].

With `CC(C)c1ccc(/C=C/c2[nH]c(=O)[nH]c(=O)c2[N+](=O)[O-])cc1` as the molecule, how does the Potency read?
Its Potency is “inactive”.

For `CC(C)(C)NC(=O)N1CCN(c2nc3ccc(Cl)cc3s2)CC1`, which Potency is on record?
Its Potency is inconclusive: 32.6 µM [cytotoxic, single point].

For `COc1ccccc1-c1ccc(SCc2ccc([N+](=O)[O-])cc2)nn1`, which Potency is on record?
Its Potency is inconclusive: 11.6 µM [cytotoxic, partial curve].

For `CCN(CC)S(=O)(=O)N1CCC(C(=O)NC2CCCC2)CC1`, which Potency is on record?
The Potency was inconclusive: 18.4 µM [cytotoxic, single point].

Which Potency does the source give for `CC(=O)c1ccc(NC(=O)CCSCCC(=O)Nc2ccc(C(C)=O)cc2)cc1` here?
The Potency was inconclusive: 9.2 µM [rising, partial curve, poor fit].

With `Cn1c(Cn2cnc([N+](=O)[O-])n2)nnc1SCC(=O)Nc1ccccc1` as the molecule, how does the Potency read?
Its Potency is inconclusive: 16.4 µM [rising, single point].

For `CCN1C(=O)[C@@H]2[C@@H](c3ccc(SC4CCCCC4)cc3)N3CCC[C@@]3(C(=O)OC)[C@@H]2C1=O`, which Potency is on record?
The Potency was “inactive”.

Which Potency does the source give for `O=C(OCC1CCCO1)c1ccc2c(c1)N(Cc1cccc(Cl)c1)C(=O)c1ccccc1S2(=O)=O` (stereo not given) here?
Its Potency is “inactive”.

Which Potency does the source give for `Nc1nonc1-n1nnc(C(=O)N/N=C/c2cc(Br)ccc2O)c1CSC1=NCCS1` here?
The Potency was inconclusive: 1.46 µM [cytotoxic, full curve].

Which Potency does the source give for `Nc1ncnc2c1ncn2C1C=C(CO)C(O)C1O` (stereo not given) here?
Its Potency is inconclusive: 8.2 µM [cytotoxic, partial curve, poor fit].

Which Potency does the source give for `O=C(c1oc2ccccc2c1CSCc1ccccc1)N1CCN(c2ncccn2)CC1` here?
The Potency was “inactive”.

Which Potency does the source give for `Cc1nc(NC(=S)NC(=O)c2cccs2)ccc1Br` here?
The Potency was inconclusive: 18.4 µM [cytotoxic, single point].

For `Clc1ccc(C(c2nnnn2C2CCCCC2)N(Cc2cccnc2)Cc2ccco2)cc1` (stereo not given), which Potency is on record?
The Potency was inconclusive: 20.6 µM [cytotoxic, single point].

Which Potency does the source give for `COc1ccc(S(=O)(=O)N2CCC(C(=O)NCc3cccs3)CC2)cc1` here?
The Potency was inconclusive: 18.4 µM [cytotoxic, partial curve, poor fit].

For `CCOc1ccccc1OCC(=O)Nc1ccc(N2CCCCC2)cc1`, which Potency is on record?
Its Potency is inconclusive: 6.51 µM [cytotoxic, partial curve].

With `Cc1cc(C)c2c(n1)nn1c(C)c(CCC(=O)NCc3ccccc3Cl)c(C)nc21` as the molecule, how does the Potency read?
Its Potency is “inactive”.

With `COc1cc(/C=C/c2noc(-c3ccccc3O)n2)cc(OC)c1OC` as the molecule, how does the Potency read?
The Potency was “inactive”.

Which Potency does the source give for `Cc1ccccc1-c1nc(NC(C)C)nc2cc(-c3ccccc3)sc12` here?
The Potency was “inactive”.

For `CCc1cccc(NC(=O)Cn2c(-c3ccccc3)cc(C(C)=O)c2C)c1`, which Potency is on record?
Its Potency is inconclusive: 0.731 µM [cytotoxic, full curve].

For `CCOC(=O)c1ccc(NC(=O)N2CCN(c3cccc(OC)c3)CC2)cc1`, which Potency is on record?
Its Potency is inconclusive: 16.4 µM [cytotoxic, single point].

For `CCC(c1nc2ccccc2[nH]1)n1c(=O)c(-c2ccco2)nc2ccccc21` (stereo not given), which Potency is on record?
The Potency was inconclusive: 8.2 µM [cytotoxic, partial curve, poor fit].

With `CCc1ccc(Nc2nnc(SCC(=O)Nc3sccc3C(N)=O)s2)cc1` as the molecule, how does the Potency read?
Its Potency is inconclusive: 18.4 µM [cytotoxic, single point].

For `CCOC(=O)c1cc(Br)c(=O)n2ccccc12`, which Potency is on record?
The Potency was active: 14.6 µM.

Which Potency does the source give for `CCOc1ccc(-c2cc3nc(C4CCN(C(=O)OC(C)(C)C)CC4)c(C(=O)Nc4ccc(C)cc4Cl)cn3n2)cc1` here?
Its Potency is “inactive”.

Which Potency does the source give for `CSc1nnc(Cn2c(=O)sc3ccccc32)n1C` here?
Its Potency is inconclusive: 18.4 µM [rising, single point].

With `CCN(CC)S(=O)(=O)c1ccc2oc(Nc3ccc(OC)cc3OC)nc2c1` as the molecule, how does the Potency read?
Its Potency is inconclusive: 9.2 µM [cytotoxic, partial curve].

For `Cc1cc(C)n(C(=O)CN(C)S(=O)(=O)c2ccc([N+](=O)[O-])cc2)n1`, which Potency is on record?
The Potency was inconclusive: 2.91 µM [rising, partial curve, poor fit].

For `c1ccc(-n2c(SCc3ccncc3)nnc2-c2ccco2)cc1`, which Potency is on record?
Its Potency is inconclusive: 14.6 µM [cytotoxic, partial curve].

With `COc1ccccc1NC(=O)CN1C(=O)CC(c2ccc(C)c(C)c2)=Nc2ccccc21` as the molecule, how does the Potency read?
The Potency was active: 16.4 µM.

Which Potency does the source give for `CCc1nnc(NS(=O)(=O)c2ccc(NC(=S)NC(=O)c3ccc(OC)c(OC)c3)cc2)s1` here?
Its Potency is “inactive”.

With `Cc1cc(C(=O)COC(=O)CC(NC(N)=O)c2ccc(Cl)cc2)c(C)n1C` (stereo not given) as the molecule, how does the Potency read?
Its Potency is inconclusive: 29.1 µM [cytotoxic, partial curve, poor fit].

Which Potency does the source give for `O=C(O)c1ccccc1N=Nc1c(O)[nH]c2ccc([N+](=O)[O-])cc12` here?
The Potency was “inactive”.

For `Cc1ccc(S(=O)(=O)CCC(=O)N2CCN(c3ccc(Cl)cc3)CC2)cc1`, which Potency is on record?
The Potency was inconclusive: 10.3 µM [cytotoxic, partial curve].

For `Oc1ccccc1/C=N/Nc1nc2ccccc2o1`, which Potency is on record?
Its Potency is inconclusive: 2.31 µM [cytotoxic, full curve, poor fit].

With `CCn1c(Cn2nnc(-c3ccccc3)n2)nnc1SCc1ccc(Cl)c(Cl)c1` as the molecule, how does the Potency read?
The Potency was active: 23.1 µM.

Which Potency does the source give for `CCN(CC)C1CCN(Cc2cn[nH]c2-c2ccc(OC)c(F)c2)C1` (stereo not given) here?
Its Potency is “inactive”.

Which Potency does the source give for `Cc1nc2ccccc2c(=O)n1/N=C/c1cc(Br)ccc1O` here?
The Potency was inconclusive: 29.1 µM [cytotoxic, single point].

With `O=C1N[C@@H](Cc2c[nH]c3ccccc23)C(=O)N[C@H]1Cc1ccccc1` as the molecule, how does the Potency read?
Its Potency is “inactive”.

For `Cc1nc2ccc(C(=O)N3c4ccccc4CC3C)cc2s1` (stereo not given), which Potency is on record?
The Potency was inconclusive: 25.9 µM [cytotoxic, single point].

Which Potency does the source give for `CCN1CCN(Cc2ccc(NC(=O)c3ccc(C)c(NC(=O)c4ccno4)c3)cc2C(F)(F)F)CC1` here?
Its Potency is inconclusive: 16.4 µM [cytotoxic, single point].

For `CCCn1c(CN2CCN(C(=O)OCC)CC2)nc2c1c(=O)n(C)c(=O)n2C`, which Potency is on record?
The Potency was “inactive”.

Which Potency does the source give for `CC(=O)Nc1ccc(-c2ccnc3c2CC(C)(C(=O)Nc2cccc(Oc4ccccc4)c2)O3)cc1` (stereo not given) here?
The Potency was inconclusive: 13 µM [cytotoxic, partial curve, poor fit].

For `CCOc1ccc(NC(=O)Nc2ccccc2SC)cc1`, which Potency is on record?
Its Potency is inconclusive: 29.1 µM [cytotoxic, single point].

For `COc1cccc(/C(O)=C2/C(=O)C(=O)N(c3ccccn3)C2c2ccc(OC)c(OC)c2)c1` (stereo not given), which Potency is on record?
The Potency was inconclusive: 29.1 µM [cytotoxic, partial curve, poor fit].

With `COc1ccc(-c2noc(CCC(=O)NCc3cc(Br)ccc3OC)n2)cc1` as the molecule, how does the Potency read?
Its Potency is inconclusive: 23.1 µM [cytotoxic, single point].

Which Potency does the source give for `CNS(=O)(=O)c1ccc(N2CCCC2)c([N+](=O)[O-])c1` here?
The Potency was “inactive”.

For `Cc1[nH]n(-c2ccccc2)c(=O)c1/C=N/N1C(=O)c2cccc3cccc(c23)C1=O`, which Potency is on record?
The Potency was active: 7.31 µM.

With `CCOc1ccc(C2C3=C(Nc4nc(N)[nH]c(=O)c42)c2ccccc2C3=O)cc1` (stereo not given) as the molecule, how does the Potency read?
Its Potency is “inactive”.

For `Cc1onc(-c2c(F)cccc2Cl)c1C(=O)NCc1ccc(S(N)(=O)=O)cc1`, which Potency is on record?
The Potency was inconclusive: 18.4 µM [cytotoxic, single point].

With `Cc1cc(C)n(CCNC(=O)[C@H]2O[C@@H](n3ccc(N)nc3=O)[C@H](O)[C@@H]2O)n1` as the molecule, how does the Potency read?
The Potency was “inactive”.

Which Potency does the source give for `Cc1sc2nc(CN3CCCCC3)nc(N3CCN(C(=O)c4ccco4)CC3)c2c1C` here?
The Potency was “inactive”.

For `Cc1cccc(Cn2c(SCc3ccc(C(=O)N4CCC(C)CC4)cc3)nc3ccncc32)c1`, which Potency is on record?
The Potency was inconclusive: 18.4 µM [cytotoxic, partial curve].

Which Potency does the source give for `CC(Oc1ccccc1)C(=O)Nc1cccc(-c2nc3ccccc3[nH]2)c1` (stereo not given) here?
The Potency was inconclusive: 23.1 µM [cytotoxic, partial curve, poor fit].

With `C=CCN(c1ccccc1Cl)S(=O)(=O)c1cccc(C(=O)NCCc2ccc(OC)cc2)c1` as the molecule, how does the Potency read?
Its Potency is active: 2.31 µM.

With `Cc1ccc(/C=C2\NC(=S)NC2=O)cc1[N+](=O)[O-]` as the molecule, how does the Potency read?
Its Potency is “inactive”.

Which Potency does the source give for `NC(=O)C1CCN(c2oc(/C=C/c3ccccc3)nc2S(=O)(=O)c2ccccc2)CC1` here?
Its Potency is “inactive”.

For `Cc1ccc(S(=O)(=O)Nc2cnc3ccccc3c2)cc1`, which Potency is on record?
Its Potency is “inactive”.

For `CCOc1ccc(-c2noc(CCCC(N)=O)n2)cc1OC`, which activity change, negative = cytotoxicity is on record?
Its activity change, negative = cytotoxicity is inconclusive: -30.2% [cytotoxic].

Which Potency does the source give for `CCOC(=O)CSc1nc(-c2ccccc2)cc(C(F)(F)F)c1C#N` here?
The Potency was “inactive”.

Which Potency does the source give for `Cc1nn(-c2ccccc2)c(OC(=O)c2ccc(F)cc2)c1S(=O)(=O)c1ccccc1` here?
The Potency was inconclusive: 29.1 µM [rising, single point].

With `Cc1cccc(NC(=S)NC2CCCCCC2)c1C` as the molecule, how does the Potency read?
The Potency was active: 18.4 µM.

With `Cc1ccc(CSc2nc3ncccc3[nH]2)cc1` as the molecule, how does the activity change, negative = cytotoxicity read?
Its activity change, negative = cytotoxicity is inconclusive: -31.4% [cytotoxic].

For `COc1ccc(/C=C2\SC(=O)N(CCC(=O)Nc3ccccc3)C2=O)cc1OC`, which Potency is on record?
Its Potency is “inactive”.

For `COc1cc2[nH]c(=S)n(C3CCN(Cc4ccccc4)CC3)c(=O)c2cc1OC`, which Potency is on record?
The Potency was inconclusive: 20.6 µM [cytotoxic, single point].

For `CCOC(=O)C1C(=O)C=C(c2ccc(C)cc2)CC1c1ccccc1` (stereo not given), which Potency is on record?
The Potency was inconclusive: 11.6 µM [cytotoxic, partial curve].

Which Potency does the source give for `COc1ccc(/C=C(\C#N)c2c[nH]c3ccccc23)cc1` here?
Its Potency is active: 1.3 µM.

With `COc1ccccc1C(=O)NCC(=O)NNC(=O)C1COc2ccccc2O1` (stereo not given) as the molecule, how does the Potency read?
Its Potency is inconclusive: 29.1 µM [rising, single point].

Which Potency does the source give for `CC(=O)N1c2ccc(S(=O)(=O)NCC3CCC(C(=O)Nc4ccc(C)cn4)CC3)cc2CC1C` (stereo not given) here?
The Potency was inconclusive: 16.4 µM [cytotoxic, single point].
